Literature values in patent US4980283A, “Renin-inhibitory pepstatin phenyl derivatives” (Merck & Co., Inc., priority 1989, dated 1990).
At least one compound was matched to its structure with a doubt left. Square brackets hold non-standard residues; d marks the D form. Peptide text beside a SMILES is read from it. * marks the point of attachment. Sta = CC(C)C[C@H](N)[C@@H](O)CC(=O)O; Isovaleryl = CC(C)CC(=O)*

Conditions: cited from earlier work

In the case of `CC(C)CC(=O)N[C@H](C(=O)N[C@H](C(=O)N[C@@H](CC(C)C)[C@@H](O)CC(=O)N[C@@H](C)C(=O)N[C@@H](CC(C)C)[C@@H](O)CC(=O)O)C(C)C)C(C)C` [Pepstatin A] (Isovaleryl-VV[Sta]A[Sta]-OH), the solubility is listed as “limited solubility”.
